Experimental data: article PMC4423191

Amino acid sequences for entries named in this document (tags omitted).
UniProt P78527: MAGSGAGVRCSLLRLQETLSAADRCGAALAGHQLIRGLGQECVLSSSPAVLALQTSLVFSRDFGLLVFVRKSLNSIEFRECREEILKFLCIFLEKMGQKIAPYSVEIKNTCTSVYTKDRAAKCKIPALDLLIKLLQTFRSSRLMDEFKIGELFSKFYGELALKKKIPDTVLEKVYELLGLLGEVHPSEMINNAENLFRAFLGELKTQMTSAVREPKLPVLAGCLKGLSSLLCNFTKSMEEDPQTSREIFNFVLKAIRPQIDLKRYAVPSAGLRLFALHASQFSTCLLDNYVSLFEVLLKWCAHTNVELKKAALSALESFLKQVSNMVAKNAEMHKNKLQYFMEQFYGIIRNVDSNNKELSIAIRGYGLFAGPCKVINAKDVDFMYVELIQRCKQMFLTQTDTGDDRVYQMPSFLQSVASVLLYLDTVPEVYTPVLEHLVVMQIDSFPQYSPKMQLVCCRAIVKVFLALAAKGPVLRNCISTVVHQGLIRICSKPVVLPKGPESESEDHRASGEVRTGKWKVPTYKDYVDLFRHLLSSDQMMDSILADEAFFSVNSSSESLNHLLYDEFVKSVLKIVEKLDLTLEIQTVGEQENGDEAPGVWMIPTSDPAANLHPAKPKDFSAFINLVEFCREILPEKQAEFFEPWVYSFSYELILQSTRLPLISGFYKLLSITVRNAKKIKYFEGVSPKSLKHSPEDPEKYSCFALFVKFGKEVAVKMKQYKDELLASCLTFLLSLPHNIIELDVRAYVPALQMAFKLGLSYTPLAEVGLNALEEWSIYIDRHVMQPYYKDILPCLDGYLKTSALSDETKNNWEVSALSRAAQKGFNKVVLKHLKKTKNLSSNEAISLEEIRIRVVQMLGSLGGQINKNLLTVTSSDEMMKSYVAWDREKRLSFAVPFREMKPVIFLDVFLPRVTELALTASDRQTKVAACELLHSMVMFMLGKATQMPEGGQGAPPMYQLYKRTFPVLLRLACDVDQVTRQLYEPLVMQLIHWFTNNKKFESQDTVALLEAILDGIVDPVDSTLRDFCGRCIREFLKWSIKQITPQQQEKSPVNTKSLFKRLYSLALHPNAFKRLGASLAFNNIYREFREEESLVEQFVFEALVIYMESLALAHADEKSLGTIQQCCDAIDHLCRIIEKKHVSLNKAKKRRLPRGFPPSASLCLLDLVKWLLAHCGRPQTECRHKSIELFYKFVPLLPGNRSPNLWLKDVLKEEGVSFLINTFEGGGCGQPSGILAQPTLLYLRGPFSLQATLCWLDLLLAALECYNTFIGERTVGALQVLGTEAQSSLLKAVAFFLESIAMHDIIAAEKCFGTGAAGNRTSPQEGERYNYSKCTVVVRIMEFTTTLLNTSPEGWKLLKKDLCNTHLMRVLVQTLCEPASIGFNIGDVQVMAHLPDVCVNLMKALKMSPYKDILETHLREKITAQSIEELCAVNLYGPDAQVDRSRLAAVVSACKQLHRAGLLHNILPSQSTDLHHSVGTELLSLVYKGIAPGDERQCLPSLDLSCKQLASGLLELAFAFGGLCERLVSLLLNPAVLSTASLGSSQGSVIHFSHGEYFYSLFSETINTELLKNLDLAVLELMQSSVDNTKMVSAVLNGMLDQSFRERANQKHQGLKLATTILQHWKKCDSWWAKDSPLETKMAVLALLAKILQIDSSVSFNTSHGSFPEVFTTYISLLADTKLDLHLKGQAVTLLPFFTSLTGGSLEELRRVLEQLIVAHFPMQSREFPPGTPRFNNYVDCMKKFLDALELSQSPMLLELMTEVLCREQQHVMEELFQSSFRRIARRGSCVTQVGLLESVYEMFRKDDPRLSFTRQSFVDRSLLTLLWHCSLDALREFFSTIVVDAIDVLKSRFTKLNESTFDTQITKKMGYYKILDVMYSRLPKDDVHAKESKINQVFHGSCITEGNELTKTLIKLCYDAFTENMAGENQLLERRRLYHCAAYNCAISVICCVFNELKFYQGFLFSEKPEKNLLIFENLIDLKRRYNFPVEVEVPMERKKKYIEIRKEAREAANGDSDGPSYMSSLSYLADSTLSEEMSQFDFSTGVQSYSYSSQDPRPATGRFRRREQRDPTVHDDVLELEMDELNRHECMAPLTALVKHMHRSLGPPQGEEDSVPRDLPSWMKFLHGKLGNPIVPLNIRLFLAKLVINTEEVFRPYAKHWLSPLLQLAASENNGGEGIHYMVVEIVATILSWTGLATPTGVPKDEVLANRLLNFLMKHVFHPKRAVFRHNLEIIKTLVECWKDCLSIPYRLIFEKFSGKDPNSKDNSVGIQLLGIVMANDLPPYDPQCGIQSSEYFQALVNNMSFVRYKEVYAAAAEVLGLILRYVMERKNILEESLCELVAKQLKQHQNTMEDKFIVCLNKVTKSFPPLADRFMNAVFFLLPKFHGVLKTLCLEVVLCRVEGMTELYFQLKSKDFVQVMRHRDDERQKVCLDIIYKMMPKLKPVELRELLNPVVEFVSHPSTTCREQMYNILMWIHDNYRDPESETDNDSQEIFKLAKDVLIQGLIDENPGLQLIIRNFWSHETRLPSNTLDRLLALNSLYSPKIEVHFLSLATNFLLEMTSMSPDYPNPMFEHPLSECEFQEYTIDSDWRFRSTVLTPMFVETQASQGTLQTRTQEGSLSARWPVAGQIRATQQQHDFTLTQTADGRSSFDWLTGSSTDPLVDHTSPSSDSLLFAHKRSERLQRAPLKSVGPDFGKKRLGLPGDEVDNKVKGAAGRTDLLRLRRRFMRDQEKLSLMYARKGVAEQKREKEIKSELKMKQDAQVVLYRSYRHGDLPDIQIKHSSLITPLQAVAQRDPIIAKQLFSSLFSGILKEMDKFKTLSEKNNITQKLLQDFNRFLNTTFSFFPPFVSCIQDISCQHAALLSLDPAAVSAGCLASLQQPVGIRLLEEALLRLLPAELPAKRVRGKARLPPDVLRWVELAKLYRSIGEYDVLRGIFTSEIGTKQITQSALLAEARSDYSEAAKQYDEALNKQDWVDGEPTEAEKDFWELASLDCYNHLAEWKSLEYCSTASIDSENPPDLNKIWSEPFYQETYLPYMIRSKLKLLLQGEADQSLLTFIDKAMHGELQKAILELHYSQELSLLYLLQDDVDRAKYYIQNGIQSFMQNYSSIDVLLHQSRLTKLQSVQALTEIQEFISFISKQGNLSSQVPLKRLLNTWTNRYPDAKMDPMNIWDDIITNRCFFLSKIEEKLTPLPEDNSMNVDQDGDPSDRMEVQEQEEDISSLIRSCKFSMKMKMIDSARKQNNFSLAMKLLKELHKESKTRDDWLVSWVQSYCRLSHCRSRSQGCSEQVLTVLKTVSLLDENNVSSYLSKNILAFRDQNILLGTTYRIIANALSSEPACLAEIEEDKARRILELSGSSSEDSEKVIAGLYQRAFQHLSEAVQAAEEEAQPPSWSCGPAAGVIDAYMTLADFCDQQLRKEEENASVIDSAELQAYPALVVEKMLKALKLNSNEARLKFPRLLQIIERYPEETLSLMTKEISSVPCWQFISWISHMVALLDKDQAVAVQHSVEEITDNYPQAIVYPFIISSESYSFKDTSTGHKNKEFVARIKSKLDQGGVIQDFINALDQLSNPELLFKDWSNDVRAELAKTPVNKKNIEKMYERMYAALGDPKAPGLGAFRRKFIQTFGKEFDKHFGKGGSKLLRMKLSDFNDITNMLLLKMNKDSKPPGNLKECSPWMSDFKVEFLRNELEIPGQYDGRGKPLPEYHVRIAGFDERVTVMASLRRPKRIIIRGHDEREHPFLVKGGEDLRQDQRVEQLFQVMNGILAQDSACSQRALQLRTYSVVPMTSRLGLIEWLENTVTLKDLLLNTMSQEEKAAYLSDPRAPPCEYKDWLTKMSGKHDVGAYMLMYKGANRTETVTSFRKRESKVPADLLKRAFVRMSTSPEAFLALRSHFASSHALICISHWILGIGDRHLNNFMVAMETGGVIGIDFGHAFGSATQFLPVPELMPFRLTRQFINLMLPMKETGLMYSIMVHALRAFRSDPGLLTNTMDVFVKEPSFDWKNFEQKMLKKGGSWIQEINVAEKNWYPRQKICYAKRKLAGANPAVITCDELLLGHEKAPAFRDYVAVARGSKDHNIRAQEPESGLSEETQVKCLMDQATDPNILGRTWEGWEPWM
UniProt P09874: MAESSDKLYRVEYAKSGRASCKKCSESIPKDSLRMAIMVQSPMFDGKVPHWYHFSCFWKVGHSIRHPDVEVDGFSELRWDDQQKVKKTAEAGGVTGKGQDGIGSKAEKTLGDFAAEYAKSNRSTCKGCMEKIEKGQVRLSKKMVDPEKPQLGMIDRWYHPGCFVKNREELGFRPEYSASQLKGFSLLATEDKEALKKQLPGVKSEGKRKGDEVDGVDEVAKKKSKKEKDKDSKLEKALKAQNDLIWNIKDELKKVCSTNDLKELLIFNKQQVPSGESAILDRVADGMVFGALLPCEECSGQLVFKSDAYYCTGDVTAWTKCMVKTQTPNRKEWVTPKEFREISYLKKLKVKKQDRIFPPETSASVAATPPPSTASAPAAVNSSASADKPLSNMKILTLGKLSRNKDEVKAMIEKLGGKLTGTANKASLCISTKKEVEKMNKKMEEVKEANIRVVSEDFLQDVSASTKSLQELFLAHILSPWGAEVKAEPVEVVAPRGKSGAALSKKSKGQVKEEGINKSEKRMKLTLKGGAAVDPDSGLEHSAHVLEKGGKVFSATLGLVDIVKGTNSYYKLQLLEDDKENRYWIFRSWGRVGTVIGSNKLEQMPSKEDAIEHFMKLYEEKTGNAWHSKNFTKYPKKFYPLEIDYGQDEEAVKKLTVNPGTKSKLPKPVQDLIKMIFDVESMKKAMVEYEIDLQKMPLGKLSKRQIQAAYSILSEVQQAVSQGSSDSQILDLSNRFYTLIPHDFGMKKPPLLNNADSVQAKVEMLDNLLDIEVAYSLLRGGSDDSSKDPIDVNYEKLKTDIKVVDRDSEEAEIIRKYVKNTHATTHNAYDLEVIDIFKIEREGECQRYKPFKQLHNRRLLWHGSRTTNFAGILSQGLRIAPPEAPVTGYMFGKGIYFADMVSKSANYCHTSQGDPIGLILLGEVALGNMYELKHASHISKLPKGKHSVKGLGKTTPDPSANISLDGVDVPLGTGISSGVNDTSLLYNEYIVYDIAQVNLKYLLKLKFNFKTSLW

Molecular target: FLAG-tagged DNA-PKcs (DNA-dependent protein kinase catalytic subunit) (UniProt P78527)
Experiment: affinity purification with mass spectrometry; anti-FLAG IP of FLAG-DNA-PKcs from HEK293 nuclear extracts, FLAG peptide elution, SDS-PAGE, in-gel trypsin digest, LC-MS/MS (HDMS^E), control HEK293 cells for comparison

- binding: binds
Molecule: PARP1 (from UniProt P09874 1-1014)

- binding: binds
B1: protein phosphatase 6 regulatory subunit 3 (PP6R3) (protein, UniProt Q5H9R7 1-873)
chain: MFWKFDLHSSSHIDTLLEREDVTLKELMDEEDVLQECKAQNRKLIEFLLKAECLEDLVSFIIEEPPQDMDEKIRYKYPNISCELLTSDVSQMNDRLGEDESLLMKLYSFLLNDSPLNPLLASFFSKVLSILISRKPEQIVDFLKKKHDFVDLIIKHIGTSAIMDLLLRLLTCIEPPQPRQDVLNWLNEEKIIQRLVEIVHPSQEEDRHSNASQSLCEIVRLSRDQMLQIQNSTEPDPLLATLEKQEIIEQLLSNIFHKEKNESAIVSAIQILLTLLETRRPTFEGHIEICPPGMSHSACSVNKSVLEAIRGRLGSFHELLLEPPKKSVMKTTWGVLDPPVGNTRLNVIRLISSLLQTNTSSINGDLMELNSIGVILNMFFKYTWNNFLHTQVEICIALILASPFENTENATITDQDSTGDNLLLKHLFQKCQLIERILEAWEMNEKKQAEGGRRHGYMGHLTRIANCIVHSTDKGPNSALVQQLIKDLPDEVRERWETFCTSSLGETNKRNTVDLVTTCHIHSSSDDEIDFKETGFSQDSSLQQAFSDYQMQQMTSNFIDQFGFNDEKFADQDDIGNVSFDRVSDINFTLNTNESGNIALFEACCKERIQQFDDGGSDEEDIWEEKHIAFTPESQRRSSSGSTDSEESTDSEEEDGAKQDLFEPSSANTEDKMEVDLSEPPNWSANFDVPMETTHGAPLDSVGSDVWSTEEPMPTKETGWASFSEFTSSLSTKDSLRSNSPVEMETSTEPMDPLTPSAAALAVQPEAAGSVAMEASSDGEEDAESTDKVTETVMNGGMKETLSLTVDAKTETAVFKSEEGKLSTSQDAACKDAEECPETAEAKCAAPRPPSSSPEQRTGQPSAPGDTSVNGPV

Results are given in words; binding and its absence hold for the method and conditions named. In cells and extracts the contact can be indirect. Here binding means that the protein was enriched with, or labelled near, the bait; the list need not be complete. Each block holds one molecule with its values, some of them ahead of it.
